Library screen at single concentrations

Chains of the proteins cited; added tags and fusions are not shown. Residues count along the entry.
UniProt Q4DA54, 1-478: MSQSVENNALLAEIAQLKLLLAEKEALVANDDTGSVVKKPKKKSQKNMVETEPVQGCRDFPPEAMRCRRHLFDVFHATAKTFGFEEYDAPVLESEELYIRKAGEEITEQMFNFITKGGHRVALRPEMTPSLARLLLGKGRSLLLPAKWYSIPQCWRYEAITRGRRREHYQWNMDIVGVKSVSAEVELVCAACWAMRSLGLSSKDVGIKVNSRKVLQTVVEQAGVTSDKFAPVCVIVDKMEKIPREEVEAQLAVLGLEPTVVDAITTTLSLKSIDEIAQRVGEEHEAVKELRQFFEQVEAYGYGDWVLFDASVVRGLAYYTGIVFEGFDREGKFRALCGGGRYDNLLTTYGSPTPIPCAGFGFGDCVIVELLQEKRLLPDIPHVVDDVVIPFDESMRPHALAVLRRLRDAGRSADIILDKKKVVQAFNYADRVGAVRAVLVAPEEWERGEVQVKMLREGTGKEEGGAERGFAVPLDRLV

Each number is a percent effect as filed.
The record does not define 0% and 100%; most values in the screen are far below 50% and negative numbers occur (in some assays of this library far below -100).
This is an unselected part of the compounds tested.

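Histidine-tRNA ligase, Trypanosoma cruzi CL Brener (UniProt Q4DA54). Enzyme assay of histidyl-tRNA synthetase; the read-out is not stated. Concentration: 30 µM. Higher reads as stronger inhibition (inferred: compounds with an IC50 in retests scored well above the rest). About 69,000 compounds were tested under these conditions; 0.045% (about 31) showed 50% or more at least once.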

Compound | effect
N#CC1(C(=O)N2CCN(Cc3cscn3)CC2)CCCC1 | 5.263%
CC(C)NC(=O)[C@H]1C[C@@H]2[C@@H](C1)OCCN2Cc1ccsc1 | 1.493%
CC(=O)N(C)CC(=O)Nc1cnc(-n2ccnc2C)nc1 | -1.463%
CC(C)c1nccn1C1CCCN(C(=O)c2cnc[nH]2)C1 (centres undefined) | -2.273%
Cc1[nH]c(=O)sc1S(=O)(=O)N1CCCC1C(=O)NCc1ccsc1 (centres undefined) | 6.061%
Cc1oc(-c2ccc(F)cc2)nc1CN1CCOCS1(=O)=O | 1.093%
CCc1cc(C(=O)N2CCC(c3cc4ncccc4cn3)CC2)no1 | 5.97%
CCn1cc(NC(=O)NCCN2CCc3ccccc3C2)cn1 | 6.706%
COc1cc2nc(C)n(CC(=O)O)c(=O)c2cc1OC | 3.825%
CC(NCc1ccnc(OC2CCC2)c1)c1cnn(C)c1 (centres undefined) | 2.01%
Cc1ncsc1CCN(C)C(=O)CN1CC2(CCCC2)CC1=O | 9.639%
CN(C)C(=O)N1C[C@@H]2CC[C@H](C1)N(C(=O)c1cccc(N(C)C)c1)C2 | 1.754%
O=C(CC1OCCc2ccccc21)NCCn1cccc1 (centres undefined) | 5.319%
Cc1cc(C(C)NC(=O)c2ccc(O)nc2)c(C)o1 (centres undefined) | 7.006%
COc1ccccc1C(=O)N1Cc2cc(C)ccc2OCC1CN(C)C (centres undefined) | 2.703%
COc1ccc(C(=O)NCC(C)(O)CCc2ccccc2)cc1 (centres undefined) | 10.31%
Cc1ccc(CN(Cc2nc3c(cnn3C)c(=O)[nH]2)C(C)C)s1 | 7.331%
CNC(=O)c1cccc(NC(=O)CN2CCN(S(C)(=O)=O)CC2)c1 | -0.8475%
Cc1noc(C)c1-c1ccnc(C2CCN(S(=O)(=O)N(C)C)CC2)c1 | 8.365%
CN(C)c1nc2c(c(NCc3nnc4n3CCCCC4)n1)CCNC2 | 20.4%
O=C(N1CCC(OCc2ccccn2)CC1)C1(c2ccc(F)cc2)CC1 | 9.836%
O=C1CC(NS(=O)(=O)N2CCOCC2)CN1CCc1ccccc1 (centres undefined) | 3.933%
Cc1ccc(F)cc1C(=O)N1CCN(S(C)(=O)=O)[C@@H](C)C1 | 7.975%
CC(C)(C)OC(=O)N1CCN(c2cccnc2)CC1C(=O)O (centres undefined) | 3.846%
CC(O)CNC(=O)NCCCN1CCN(c2ncccn2)CC1 (centres undefined) | 7.303%
Cc1ccc2[nH]c(-c3cn(C4CCNCC4)nn3)nc2c1C | 6.077%
CC(C)N1CCC(C(=O)N2CCN(c3cccc(C(=O)O)c3)CC2)CC1 | 8.458%
CSC1(CNC(=O)NCc2sccc2C)CCOCC1 | 6.667%
COc1cc(CNCc2c(C)nn(C)c2N(C)C)ccn1 | 3.008%
CN(C)C(=O)c1nn(C)c2c1CN(Cc1ccoc1)C2 | 1.754%
c1cc(CNCC2OCCc3cn(CC4CC4)nc32)cs1 (centres undefined) | 10.75%
CCCc1nc(CN(CC)Cc2ccoc2)no1 | 3.017%
COc1ccc(CN(C(=O)C2CCOCC2)c2ccncc2)cc1 | 4.167%
CC(C)(C)n1ncc2c1CCCC2NCc1cccc2c1OCCO2 (centres undefined) | 4.507%
COc1cc(F)c(S(=O)(=O)N2c3ncccc3NC(=O)C2C)cc1OC (centres undefined) | 1.587%
O=C(CCc1ccccn1)N1CCCC(n2cncn2)C1 (centres undefined) | 4.651%
CN(C)CCN1C(=O)CC[C@@H]2[C@H]1CCN2C(=O)c1ccc(C#N)cc1 | 6.135%
Cc1n[nH]c(C)c1NC(=O)CCc1cccc(C2CCCN(C)C2)n1 (centres undefined) | 10%
CS(=O)(=O)c1ccc(CNC(=O)NCc2cc[nH]n2)cc1 | 9.524%
O=C(Cc1cc2c(cc1Cl)OCCO2)N1CC[C@H](CO)[C@H](O)C1 | 1.63%
CCc1nc(CNCCn2cc(C)cn2)no1 | 5.263%
O=C(Nc1ccc(Br)cc1F)c1ccc(N2CCCCC2)nn1 | 2.646%
O=C(Cc1ccccn1)N1CCc2ncnc(NC3CCC3)c2CC1 | 3.659%
CN1CC(C(=O)NC(C)(C)CNC(=O)OC(C)(C)C)CC1=O (centres undefined) | 4.651%
CC1=C(c2ccc(C(C)C)cc2)S(=O)(=O)N=C1N1CCc2ccccc21 | 6.533%
CCCc1noc(C2CCN(C(=O)C3CCCO3)CC2)n1 (centres undefined) | 6.736%
Cn1cc(CN2CCC(F)(F)C3(CCN(c4cnccn4)C3)C2)cn1 (centres undefined) | 3.743%
CC(C)N(C)[C@@H]1CCN(C(=O)[C@H]2CCCO2)[C@H]1Cc1cnn(C)c1 | 7.527%
Cc1ccccc1CC(C)NCc1c(C)nn(C)c1N1CCOCC1 (centres undefined) | 4.065%
Cn1ncnc1CNc1ccccc1C(=O)NC(C)(C)C | 3.067%
Cc1ccc(C(C)(O)CNC(=O)c2scnc2C)o1 (centres undefined) | 6.494%
CC(C)CC(=O)N[C@H](C)c1c(-c2ccc(Cl)cc2)noc1C(=O)O | 3.96%
COc1ncccc1C(=O)NC1CCOc2ccccc21 (centres undefined) | 4.046%
CS(=O)(=O)NCCN1CCOC2(CCc3ccccc32)C1 (centres undefined) | 5.464%
c1ccc(-c2nnn3c2COC(CNCC2CCOCC2)C3)cc1 (centres undefined) | 2.732%
c1ccc(-c2nnc3n2CCN(Cc2ccc4c(c2)OCCO4)C3)cc1 | 7.289%
COc1ccccc1CC1CCCN(C(=O)c2cn[nH]c2C)C1 (centres undefined) | 2.674%
CSCCC(=O)N1CCN(CC(C)O)CC1 (centres undefined) | 1.235%
O=C(NCc1nc2cc(F)ccc2[nH]1)c1ccc[nH]1 | 6.931%
CC(=O)N[C@@H]1CN(CC(=O)NCc2ccccc2C)C[C@H]1C(C)C | 7.216%

Repeated from the top, 4 entries:

With N#CC1(C(=O)N2CCN(Cc3cscn3)CC2)CCCC1 the screen gave 5.263%.
With CC(C)NC(=O)[C@H]1C[C@@H]2[C@@H](C1)OCCN2Cc1ccsc1 the screen gave 1.493%.
With CC(=O)N(C)CC(=O)Nc1cnc(-n2ccnc2C)nc1 the screen gave -1.463%.
With CC(C)c1nccn1C1CCCN(C(=O)c2cnc[nH]2)C1 (centres undefined) the screen gave -2.273%.

From ChEMBL document CHEMBL3988442, “University of Dundee, Small-Polar-MMV Screening Library” (2021).